In PubChem BioAssay AID2517 (National Center for Advancing Translational Sciences (NCATS), 2010):
Screen size: about 350,000 compounds; about 1,200 (0.34%) were called active. Inconclusive means that the source gave no clear call. Such entries were picked first, then a sample of the others. Calls follow the shape of the dose curve; as a rule, active = well fitted inhibition curve with a large enough effect; inconclusive = small, poorly fitted or top-dose-only effect; inactive = no such curve, though single readings can be large or run the other way. Potencies beside an inconclusive call are fits to weak or partial responses and may not hold up.

The chains behind the UniProt entries cited, without tags or fusion partners.
UniProt P27695, whole entry, looked up: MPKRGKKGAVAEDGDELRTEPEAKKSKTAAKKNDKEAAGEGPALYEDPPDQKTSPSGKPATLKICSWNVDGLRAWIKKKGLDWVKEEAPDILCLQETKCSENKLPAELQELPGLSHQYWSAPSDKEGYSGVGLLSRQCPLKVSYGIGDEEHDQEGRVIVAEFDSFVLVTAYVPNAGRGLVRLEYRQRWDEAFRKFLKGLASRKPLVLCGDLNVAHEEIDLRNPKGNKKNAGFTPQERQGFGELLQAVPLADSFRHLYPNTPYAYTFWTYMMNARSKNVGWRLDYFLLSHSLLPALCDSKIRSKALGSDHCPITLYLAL

molecular target: DNA repair nuclease/redox regulator APEX1 (Homo sapiens) (UniProt P27695); experiment: qHTS Assay for Inhibitors of the Human Apurinic/apyrimidinic Endonuclease 1 (APE1); conditions: recombinant APE1, TAMRA/BHQ-2 abasic DNA cleavage fluorescence; activity change, negative = inhibition: at 65.8 µM (top of the series); also: nearly all actives have a fitted effect of over 55% in size;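 as to activity change, negative = inhibition: plate controls were vehicle for no effect and reference inhibitor for full effect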
Procedure, shortened: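 Endonuclease cleavage of a quenched abasic-site DNA duplex (50 nM) by APE1 (0.75 nM) was tracked by TAMRA dequenching. Compounds were preincubated with enzyme 15 min at room temperature; data normalized to buffer-only and DMSO wells plus NSC13755 control.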
Potency is read from the fitted curve at half-maximal effect.

Compound	Potency	activity change, negative = inhibition
COc1ccc(N2CCN(C(=O)CN(C)S(=O)(=O)c3cc(C)ccc3OC)CC2)cc1	inconclusive: 39.8 µM [inhibitor, single point]	–
COc1ccc(-c2coc3cc(O)ccc3c2=O)cc1O	inconclusive: 28.2 µM [inhibitor, partial curve]	–
COc1ccc(NC(=O)C2=CC(c3ccc(C)cc3)=NS(=O)(=O)N2C)cc1OC	inactive	–
O=C(O)c1c(Sc2ccccc2)c2cc(Cl)ccc2n1Cc1ccc(Cl)cc1	inconclusive: 44.7 µM [inhibitor, single point]	–
CCC(C)[C@H](NC(=O)C1CCC(CNC(=O)[C@@H]2CCCN2C(=O)OC(C)(C)C)CC1)C(=O)O (stereo partly drawn)	active: 150 µM	–
COc1ccc2c(C)cc(SCC(=O)NC3CCCC3)nc2c1	inactive	–
CCOC(=O)CSc1n[nH]c(=S)s1	inactive	–
O=C(N/N=C/c1c(O)ccc2ccccc12)c1[nH]ncc1Br	inconclusive: 39.8 µM [inhibitor, single point]	–
COc1cc(/C=C2/NC(=O)N(Cc3ccccc3F)C2=O)cc(OC)c1O	inconclusive: 28.2 µM [inhibitor, partial curve]	–
O=C(N/N=C/c1ccc(OCCCF)cc1)c1cc(OCC(F)(F)F)ccc1OCC(F)(F)F	inactive	–
CC1CC(C)CN(C(=O)CSc2nnc(-c3ccc(Cl)cc3)o2)C1 (stereo not drawn)	inconclusive: 0.158 µM [inhibitor, full curve, poor fit]	–
Cc1cc(C)c2oc(-c3ccc(C)c(NC(=S)NC(=O)/C=C/c4ccco4)c3)nc2c1	inactive	–
CCOC(=O)C1=C(SCC)c2cc3c(n2C1=O)CCCC3	inconclusive: 1.12 µM [inhibitor, full curve, poor fit]	–
O=c1cc(-c2ccccc2)nc(N2CCN(Cc3ccccc3)CC2)[nH]1	inconclusive: 17.8 µM [inhibitor, partial curve, poor fit]	–
CC(=O)OCC1OC(c2ccc3c(c2)OCO3)C=CC1OC(C)=O (stereo not drawn)	–	inactive: 17.4% [at 12.4 µM]
Cc1ccc(/C=N/NC(=O)Cc2cccs2)o1	inconclusive: 0.1 µM [inhibitor, full curve, poor fit]	–
COC(=O)CC1C2(C)CC34OC5(C)O[C@@]6(C7/C(=C(/OC)C(C)C)C(=O)OC(c8ccoc8)[C@@]7(C)C(OC(=O)C(C)C)C(OC)[C@]6(O5)[C@@]13C)C(OC)[C@]4(OC)C2OC(C)=O (stereo partly drawn)	inconclusive: 11.2 µM [inhibitor, partial curve]	–
Oc1ccc(NCc2ccccc2OCc2ccccc2)cc1	inconclusive: 22.4 µM [inhibitor, partial curve]	–

5 structures already listed, arranged by molar mass, descending:
Compound	Potency	activity change, negative = inhibition
O=C(N/N=C/c1ccc(OCCCF)cc1)c1cc(OCC(F)(F)F)ccc1OCC(F)(F)F	inactive	–
COc1ccc(NC(=O)C2=CC(c3ccc(C)cc3)=NS(=O)(=O)N2C)cc1OC	inactive	–
CC1CC(C)CN(C(=O)CSc2nnc(-c3ccc(Cl)cc3)o2)C1 (stereo not drawn)	inconclusive: 0.158 µM [inhibitor, full curve, poor fit]	–
CCOC(=O)C1=C(SCC)c2cc3c(n2C1=O)CCCC3	inconclusive: 1.12 µM [inhibitor, full curve, poor fit]	–
Cc1ccc(/C=N/NC(=O)Cc2cccs2)o1	inconclusive: 0.1 µM [inhibitor, full curve, poor fit]	–
